From US20090035320A1 (MIE UNIVERSITY, published 2009) come the findings set out here.

The target in test [1] is T1, HGFa (in mouse plasma) (mouse) (UniProt Q9R098).
T1 sequence (looked up): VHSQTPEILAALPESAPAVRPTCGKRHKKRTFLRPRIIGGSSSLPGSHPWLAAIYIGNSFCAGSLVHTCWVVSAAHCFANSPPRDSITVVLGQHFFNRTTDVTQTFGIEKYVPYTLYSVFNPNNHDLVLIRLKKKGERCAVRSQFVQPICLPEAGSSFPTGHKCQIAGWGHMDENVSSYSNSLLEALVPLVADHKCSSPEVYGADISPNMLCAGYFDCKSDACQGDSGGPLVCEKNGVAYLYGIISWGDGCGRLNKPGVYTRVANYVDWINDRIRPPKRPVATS
In words: immunoprecipitation from plasma with anti-human PCI antibody, Western blot with anti-HGFa antibody. (A western blot detects proteins with antibodies after separation by electrophoresis.)

For test [2], the target named is T1, HGFa (in mouse plasma) (mouse). The experiment in a line: co-immunoprecipitation from mouse plasma with anti-human PCI IgG-Sepharose (IP: ANTI-PCI ANTIBODY), immunoblot with anti-HGFa antibody (WB: ANTI-HGFa ANTIBODY).

No constants are given. Whether binding was seen depends on the method and setting. For some assays here: In cells and extracts the contact can be indirect. Some entries that bind do so weakly or less than the wild type.

B1: human PCI (protein, UniProt P05154 26-406, looked up)
chain: EMKKRVEDLHVGATVAPSSRRDFTFDLYRALASAAPSQSIFFSPVSISMSLAMLSLGAGSSTKMQILEGLGLNLQKSSEKELHRGFQQLLQELNQPRDGFQLSLGNALFTDLVVDLQDTFVSAMKTLYLADTFPTNFRDSAGAMKQINDYVAKQTKGKIVDLLKNLDSNAVVIMVNYIFFKAKWETSFNHKGTQEQDFYVTSETVVRVPMMSREDQYHYLLDRNLSCRVVGVPYQGNATALFILPSEGKMQQVENGLSEKTLRKWLKMFKKRQLELYLPKFSIEGSYQLEKVLPSLGISNVFTSHADLSGISNHSNIQVSEMVHKAVVEVDESGTRAAAATGTIFTFRSARLNSQRLVFNRPFLMFIVDNNILFLGKVNRP
For B1, the binding entry in test [1] and in test [2] was “binds” each time.
